B1: CES-B1L: CHO host cell protein lipase identified in mAb-1, SEQ ID NO: 10 (protein, listed as Cricetulus griseus)
chain: MCLQALFLVLQAICMVWGHPSSPPVVNTVHGKVLGRYISLEGFSQPVAVFLGVPFAKPPLGSLRFAPPQPAEPWSFVKNATSYPPMCSQDAVRGQKINDLITNRKEKIHLEFSEDCLYLNIYTPANLTRSSRLPAARCMIRKARTVSGTKSFLLPQKITGDEHSQGNWGHLDQVAALHWVQDNIAYFGGDPGSVTIFGESAGGFSVSVLVLSPLAKNLFHRAISESGVIFVPSLFTKNPRTATEKVAVTAGCKTTTSAVIVHCLRQKTEDELLEVMQKMVGVFSNGMCSRCLDHAFVPTVLDGVLLPKAPEEILAEKNFNTVPYIVGINKQEFGWLLPTMMRFPQPDDKKMAIALLQKFAPYFGMNEDVVPVAIEKYVRGSNEPLKIRDGVLDILGDLTFGIPSVIVSRGHRDTGASTYMYEFQYHPSFSSHMRPKNVVGDHGDEVYSVFGAPILRDGASEEETNLSKMMMKFWANFARNGNPNGEGLPHWPEYDQKEGYLQIGATTQQTQRLKGEEVAFWTEILAKKHPKPEHNELSNKYLCFELAIKETRDSLHNPNARDVFQVLKSASYGKGSIVRHTPSPPVVDTVHGKVLGKYVSLEGFAQPVAVFLGVPFAKPPLGSLRFAPPQPPEPWNFVKNATSYPPMCSQPDVTGQIVNDLLTNRKENIPLQFSEDCLYLNIYTPSDLTRSDRLPVSCGTSPTF
B2: CES-1L: CHO host cell protein lipase identified in mAb-1, SEQ ID NO: 11 (protein, listed as Cricetulus griseus)
chain: MMWLCTFVLTFLTACLYQGHPPSPPIVDTVHGKVLGKYVSLEGFTQPVAIFLGVPFAKPPLGSLRFAPPQSAEPWSFVKNATSYPPMCSQDPAAGQMLSALFTNRKETIPLTFSEDCLYLNIYTPADLTKSSRLPVMVWIHGGGLVDGASTYDGLPLSAHENVVVVTIQYRLGIWGFFSTQDEHSRGNWGHLDQVAALHWVQDNIANFGGDPGSVTIFGESAGGASVSVLVLSPLAKNLFHRAISQSSVILNPCLFGRDARPIAERVAALAGCKTTTSAAMVHCLRQKTEDELLEITKKMKFGALDFLGDPRESYPFLPTVIDGVVLPKTPEEILAEKSFNTVPYMVGINKQEFGWSMPMMIGFPLSEDKLDQKRTTSLLWQSYPILNISESLIPAAIEKYLSGTDNPIRKKDLLLDLMGDVMFGVPSVIVSRGHRDAGAPTYMYEFQYLPSFVSDMRPKTVKGDHGDDLFSVWGAPFLKEGASEEEINLSKMVMKFWGNFARNGPPNGEGLPHWPEYDQKEGYLQIGVPTQAAHRLKDKEVAFWTELRAKEPAERPTQRKHVMVWIHGGGLILGGASTYDGLALSAHENVVVVAIQYRLSIWGFFSTGDEHSRGNWGHLDQVAALHWVQDNIANFGGDPGSVTIFGESAGGESVSVLMFSPLAKNLFHRAISESGVILVPGLFTKDSRIVTEKVAVTAGCKTTTSAVIVHCLRQKTEDELLEVMQKMNLFKLNVQGDTKENHAFVPTVLDGVLLPKAPEEILAEKNFNTVPYIVGINKQEFGWLLPTMMGFLQTDVKWDKKMAIALLQKFAPYFVCQYGRPALYWNPNGEGLPHWPEYDQKEGYLQIGATTQQAQRLKGEEVAFWTEILAKKQPKPEHNEL

Experiment: PRM analysis of CES-B1L and CES-1L in mAb-1
Parameters: species or system CHO
Conditions: PRM analysis of direct digest of mAb-1

Molecule | concentration of lipase in mAb-1
B1 | 9.6 ppm
B2 | 9.0 ppm

Source: patent US20210268073A1, “METHODS OF REDUCING POLYSORBATE DEGRADATION IN DRUG FORMULATIONS” (Regeneron Pharmaceuticals, Inc., priority 2020, published 2021)
